Assay results taken from publication PMC12040169 (PLOS Biology, 2025).
The list shows a part of the results.

system: T1, CTL2-GFP (C. trachomatis L2/434/Bu, GFP-expressing); set-up: species or system HeLa; Intracellular C. trachomatis growth in HeLa cells, bulk GFP fluorescence relative to DMSO; details: bulk GFP, single well; 28.5 h, 10 µM; inhibitor
T1 construct: L2/434/Bu, GFP-expressing

Structure (SMILES) | % of control remaining [%]
O=C(CC1Nc2ccccc2NC1=O)Nc1cccc(C(F)(F)F)c1 (stereo not drawn) [CBK262510] | 100
Cc1noc(/C=C\c2cc(C)n(-c3ccc(C(=O)O)cc3)c2C)c1[N+](=O)[O-] [CBK268862] | 157.143
O=C(NCCN1CCOCC1)c1ccc(NS(=O)(=O)c2ccccc2)cc1 [CBK270118] | 113.174
O=C(c1ccccc1F)N1CCN(C(=O)[C@@H]2C[C@@H]3C=C[C@H]2C3)CC1 [CBK282011] | 126.682
CCN1CCN(C(=O)c2c[nH]c3ccccc23)CC1 [CBK200245] | 119.086
Cc1ccc(OCC(O)CNC(=O)c2ccccc2C(=O)O)cc1 (stereo not drawn) [CBK264778] | 117.33
O=C(O)C1C2CCC(C2)C1C(=O)NCCCCc1ccccc1 (stereo not drawn) [CBK286967] | 139.261
CN(C)/C=N/c1nc2c(nc(Br)n2C2CC(O)C(CO)O2)c(=O)[nH]1 (stereo not drawn) [CBK201319] | 102.041
CC(=O)N1CCc2cc(NC(=O)Cn3ccnc3C(C)C)ccc21 [CBK281471] | 118.497
CCn1c(C)nc2cc(NC(=O)Cn3cc(C(=O)NC4CCCCC4)ccc3=O)ccc21 [CBK286095] | 126.331
CC(=O)Nc1nnc(SCC(=O)NCc2ccc3c(c2)OCO3)s1 [CBK287626] | 159.755
Cc1c(NC(=O)COc2ccc([N+](=O)[O-])cc2)cccc1-c1nc2ncccc2o1 [CBK263912] | 111.969
O=C(c1c[nH]c(=O)n(-c2ccc(F)cc2)c1=O)N1CCc2ccccc21 [CBK287554] | 132.729
CCC1CC(C(F)(F)F)n2ncc(C(=O)O)c2N1 (stereo not drawn) [CBK286893] | 111.15
CCONC(=O)c1cc(-c2ccccc2C)nc2c1cnn2C(C)C [CBK304048] | 115.541
O=C(N/N=C/c1ccc(OC(=O)c2ccc([N+](=O)[O-])cc2)cc1)c1cccnc1 [CBK262146] | 100
O=C(CN1CCC(Oc2nccnc2OCc2ccc(Cl)c(Cl)c2)CC1)Nc1ccccc1 [CBK153783] | 79.9832
O=C(NO)c1nccnc1-c1ccc(COc2ccccc2)cc1 [CBK050841] | 139.609
Cc1ccc(N2C(=O)CC(Sc3ncccc3C(=O)O)C2=O)c(C)c1 (stereo not drawn) [CBK269377] | 113.74
COc1ccc(S(=O)(=O)N2CCC(C(=O)NC3(C(=O)O)CCCCC3)CC2)cc1OC [CBK295646] | 152.019
CCC(=O)N1CCCc2cc(C(O)CN3CCN(c4cccc(OC)c4)CC3)ccc21 (stereo not drawn) [CBK286476] | 107.766
CCOc1ccnc(N2CCN(C(=O)CCc3ccsc3)CC2)n1 [CBK304942] | 108.227
CC(C)C(=O)N1CC2(CCN(Cc3ncc[nH]3)CC2)c2ccccc21 [CBK126731] | 104.755
CC(=O)Nc1ccc(S(=O)(=O)NC2(C(F)(F)F)NC(=O)N(c3ccc(Cl)cc3)C2=O)cc1 (stereo not drawn) [CBK267689] | 147.381
COc1ccc(CCNC(=O)CSC(C)C(=O)O)cc1 (stereo not drawn) [CBK297493] | 162.907
Cc1ccc2nc(SCC(=O)Nc3ccccc3Br)c(C#N)cc2c1 [CBK068169] | 110.124

Some of these compounds in order of length of the SMILES, smallest number first:
Structure (SMILES) | % of control remaining [%]
CCONC(=O)c1cc(-c2ccccc2C)nc2c1cnn2C(C)C [CBK304048] | 115.541
O=C(c1c[nH]c(=O)n(-c2ccc(F)cc2)c1=O)N1CCc2ccccc21 [CBK287554] | 132.729
CCC(=O)N1CCCc2cc(C(O)CN3CCN(c4cccc(OC)c4)CC3)ccc21 (stereo not drawn) [CBK286476] | 107.766
COc1ccc(S(=O)(=O)N2CCC(C(=O)NC3(C(=O)O)CCCCC3)CC2)cc1OC [CBK295646] | 152.019

More results follow.

Structure (SMILES) | % of control remaining [%]
COc1ccc(OC(=O)c2cc(S(=O)(=O)N3CCCCCC3)ccc2Cl)cc1 [CBK264562] | 122.407
Cc1ccc2nc(-c3ccc4c(c3)CC(C)N4S(C)(=O)=O)cn2c1 (stereo not drawn) [CBK285184] | 119.802
O=C(O)CCc1nc2[nH]c(C(F)F)cc(=O)n2n1 [CBK286880] | 99.3449
COc1ccc(CN2C(=O)CC3(C2=O)C(=O)N(C)c2ccccc23)cc1OC (stereo not drawn) [CBK075450] | 129.726
c1ccc(-c2nnc(-c3ccco3)c(-c3ccco3)n2)cc1 [CBK286196] | 138.13
O=C1CSC2(C(=O)Nc3ccccc32)N1c1ccc([N+](=O)[O-])cc1 (stereo not drawn) [CBK026035] | 91.8097
Cc1[nH]nc2nc(-c3cc(Br)ccc3O)cc(C(=O)O)c12 [CBK286834] | 134.956
Cc1ccc(-c2ncc(OCCN(C(C)C)C(C)C)nc2N)cc1C [CBK145150] | 124.471
Cc1nc(C2CN(c3ccnc4c(F)cccc34)CCO2)no1 (stereo not drawn) [CBK304464] | 77.0829
COc1ccc(-c2cc(C(=O)N3CCC(S(C)(=O)=O)C3)cnc2-c2ccccc2)cn1 (stereo not drawn) [CBK036706] | 174.104
O=S(=O)(Nc1nnn[nH]1)c1cccc(C(F)(F)F)c1 [CBK062377] | 143.841
COc1ccc(Cc2nc(CCNC(C)=O)n(CC(F)(F)F)n2)cc1 [CBK307287] | 143.987
Nc1ncc(-c2ccc(OC(F)(F)F)cc2)nc1-c1ccc(O)cc1 [CBK122506] | 132.951
Cc1cccc(C(C)(C)C)c1NC(=O)N1CCC(Cc2ccccc2)CC1 [CBK043962] | 85.6972
CC(Oc1ccccc1)C(=O)NCCCc1ccccc1 (stereo not drawn) [CBK264060] | 121.403
O=[N+]([O-])c1ccc(CSc2nnc(-c3cnccn3)n2Cc2ccco2)cc1 [CBK267585] | 106.934
Cc1ccc(F)c(NS(=O)(=O)Cc2ccccc2)c1 [CBK038438] | 99.9788
CN1C(=O)CC2(C1=O)C(=O)N(CCN1CCCC1=O)c1ccc(F)cc12 (stereo not drawn) [CBK075463] | 147.614
CN(Cc1ncc[nH]1)C(=O)c1cn(Cc2cccc(C(F)(F)F)c2)nn1 [CBK306768] | 120.934
COc1ccc(CC(=O)N(C)CCN2CCCCC2)cc1C [CBK282728] | 152.015
CC1(C)Cc2nc(N3CCOCC3)ncc2C(NC(=O)C2CCCC2)C1 (stereo not drawn) [CBK307687] | 97.6753
O=C(CSc1ncnc2scc(-c3ccc(Cl)cc3)c12)Nc1nsc(-c2ccccc2)n1 [CBK266473] | 159.256
Fc1cccc(-c2nnc(SCc3nc4ccccc4[nH]3)n2-c2ccccc2)c1 [CBK263256] | 113.786
COc1ccc(-c2cc[nH]n2)c(OC)c1OC [CBK022957C] | 127.236
Cc1cccc(-n2c(CCc3ccccc3)nnc2SCC(=O)c2ccccc2)c1 [CBK266369] | 194.794
CN1CCC(N(C)C(=O)NCCOc2ccccc2)C1 (stereo not drawn) [CBK156018] | 101.422

Some of the entries so far, with each value named:
O=C(NO)c1nccnc1-c1ccc(COc2ccccc2)cc1 [CBK050841]
  % of control remaining [%]: 139.609
Cc1ccc(N2C(=O)CC(Sc3ncccc3C(=O)O)C2=O)c(C)c1 (stereo not drawn) [CBK269377]
  % of control remaining [%]: 113.74

Carrying on:

Structure (SMILES) | % of control remaining [%]
CCc1ccc2c(c1)C(CCNC(=O)c1ncoc1C(F)(F)F)C(=O)N2 (stereo not drawn) [CBK304725] | 93.5557
CN1C[C@@H](C(=O)N2CCCCCC2)[C@@]2(CCc3ccccc3C2=O)C1 [CBK284590] | 109.263
Cc1ccc(C(=O)C(OC(=O)c2cc(O)nc3ccccc23)c2ccccc2)cc1C (stereo not drawn) [CBK265515] | 100
Cc1ccc(NC(=O)C2CC(=O)Nc3nc4ccccc4n32)cc1 (stereo not drawn) [CBK288134] | 95.1754
Cn1c(-c2ccccc2O)n[nH]c1=S [CBK014577] | 107.187
Cc1ccc(C(=O)NCc2cccc(COCc3ccco3)c2)cc1F [CBK297750] | 142.858
Cc1cc(C)n(CC(O)CN2C(=O)NC(C)(C)C2=O)n1 (stereo not drawn) [CBK264811] | 110.313
Nc1nc(=O)n([C@@H]2O[C@H](CO)[C@H](O)C2O)cc1CO (stereo partly drawn) [CBK201160] | 102.715
COc1cc(S(=O)(=O)NC2CC(C)(C)NC(C)(C)C2)ccc1F [CBK266561] | 115.535
Cc1cc(COC(=O)N2CCC(CO)CC2)cc(C)n1 [CBK200152] | 126.636
Cc1nc(-c2ccc(NC(=O)Cc3sc(C)nc3C)cc2)cs1 [CBK281404] | 103.077
CN1CCN(CCCCn2nc3n(c2=O)-c2ccccc2OC3(C)C)CC1 [CBK023953C] | 104.868
O=C1CCC(CNS(=O)(=O)c2ccccc2Cl)N1 (stereo not drawn) [CBK304850] | 95.0352
COc1ccc(Cl)cc1N1CCN(Cc2cc(OC)c(OC)c(OC)c2)CC1 [CBK126406] | 103.402
COc1ccc2c(C)c(C(=O)NC(C)Cc3ccccn3)oc2c1 (stereo not drawn) [CBK281424] | 118.571
Cc1c(C(=O)N2CCS(=O)(=O)CC2)nnn1-c1ccc2ncccc2c1 [CBK305529] | 113.972
O=C(CN1CCN(c2ncccn2)CC1)N1N=CCC1c1ccccc1 (stereo not drawn) [CBK270184] | 158.709
COc1ccc(OC(=O)N2CCC3(CC2)CC(=O)N(Cc2ccc(S(C)(=O)=O)cc2)C3=O)cc1 [CBK155952] | 90.7349
CCn1c(=O)n(CC(=O)NCCc2ccccc2)c2cccnc21 [CBK283812] | 145.179
CC(C)(C)c1ccc2c(c1)C(CCCCN1CCCC1)(c1ccccc1)C(=O)O2 (stereo not drawn) [CBK017654C] | 100
O=C(Nc1cccc(C(=O)O)c1)/C(=C\c1ccccc1)NC(=O)c1ccccc1Cl [CBK263710] | 135.059
COc1ccc(-c2nc(COC(=O)c3cccnc3N)cs2)cc1OC [CBK296741] | 99.1493
Cc1cccc(NC2(C(F)(F)F)NC(c3ccccc3)=NC2=O)n1 (stereo not drawn) [CBK267476] | 141.784
Cc1oc(CSc2nnc(NCc3ccc(F)cc3)s2)cc1C(=O)O [CBK296629] | 128.442
Cc1cc(NC(=O)NC2CC3(CCN(C)CC3)Oc3ccccc32)no1 (stereo not drawn) [CBK305059] | 137.012
O=C(CN(c1ccccc1)S(=O)(=O)c1ccc(F)cc1)Nc1ccc(Cl)c(Cl)c1 [CBK268740] | 140.921
